Some of the results follow. Repeats in this data set agree poorly, so a single value says little.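 The human kidney-derived cells carry a stably integrated construct of eight TEAD-binding elements driving luciferase, read by luminescence in a drug-repurposing library screen. A compound counts as a hit when its signal is more than five robust Z scores above the plate mean.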
Test system: HEK293A TEAD-LUC reporter
Experiment: TEAD-luciferase reporter activity (YAP activation), robust Z score vs plate; higher = stronger YAP/TEAD activation
Details: 24 h

| Compound | TEAD-luciferase reporter activity (compound concentration: 2 uM) | TEAD-luciferase reporter activity (compound concentration: 200 nM) | TEAD-luciferase reporter activity (compound concentration: 10 uM) |
| --- | --- | --- | --- |
| NC(CS)C(=O)O (stereo not given) [cysteine] | inactive: -1.71 | – | – |
| NC(CS)C(=O)O (stereo not given) [cysteine, Bio3] | – | inactive: 3.52 | inactive: -0.891 |
| CC1=C(CC/C(C)=C/C=C/C(C)=C/C(=O)O)C(C)(C)CCC1 [Pharmaprojects No. 697] | inactive: -1.15 | inactive: 0.0603 | inactive: 0.874 |
| Nc1ncc2ncn(CC3(OCP(=O)(O)O)CC3)c2n1 | – | inactive: -0.332 | inactive: 0.807 |
| CSCC[C@H](NC(=O)[C@H](CC(=O)O)NC(=O)[C@H](CC(C)C)NC(=O)[C@H](CCSC)NC(=O)[C@@H]1CCCN1C(=O)[C@@H](NC(=O)[C@H](Cc1ccc(O)cc1)NC(=O)[C@H](CC(=O)O)NC(=O)[C@@H](NC(=O)[C@H](CO)NC(=O)[C@H](CCC(=O)O)NC(=O)[C@H](CC(=O)O)NC(=O)[C@H](CCCCN)NC(=O)[C@H](CO)NC(=O)[C@H](CCSC)NC(=O)[C@@H](N)CC(=O)O)C(C)C)C(C)C)C(=O)N[C@@H](CCCCN)C(=O)O | inactive: -0.424 | inactive: -0.0189 | inactive: 0.366 |
| Cc1nc(N2CCOC[C@@H]2C)nc(-n2ccnc2)c1[N+](=O)[O-] | inactive: -0.00538 | inactive: -0.839 | inactive: -0.111 |
| Cc1cccc(Nc2ccncc2S(=O)(=O)NC(=O)NC(C)C)c1 [torasemide ER] | inactive: -1.38 | – | – |
| Cc1cccc(Nc2ccncc2S(=O)(=O)NC(=O)NC(C)C)c1 | – | inactive: -1.29 | inactive: -1.99 |
| CCOC(=O)C(=O)Nc1cc(C#N)cc(NC(=O)C(=O)OCC)c1Cl [Lodoxamide ethyl] | inactive: -0.747 | inactive: 0.483 | inactive: 2.18 |
| COC(=O)N[C@H](C(=O)NCCCCC(CO)N(CC(C)C)S(=O)(=O)c1ccc(N)cc1)C(c1ccccc1)c1ccccc1 (stereo not given in full) | inactive: -1.55 | inactive: -1.47 | inactive: -1.57 |
| O=c1cc(-c2ccc(O)c(-c3c(O)cc(O)c4c(=O)cc(-c5ccc(O)cc5)oc34)c2)oc2cc(O)cc(O)c12 | inactive: 1.09 | inactive: -0.267 | inactive: 0.851 |
| COc1ccc(OC2CN(CC3CCCCC3)C2)cc1 | – | inactive: 0.0385 | inactive: -0.0203 |
| C=Cc1cc(C(=O)Nc2ccc(C(=N)N)cc2)c(-c2ccc(C(=O)NCC3CC3)nc2C(=O)O)cc1OC [Avoralstat] | inactive: 1.29 | inactive: -1.16 | inactive: 0.328 |
| Cn1nnnc1C(/C=C/C(O)CC(O)CC(=O)O)=C(c1ccc(F)cc1)c1ccc(F)cc1 (stereo not given) | inactive: -1.4 | inactive: -1.4 | inactive: 0.131 |
| CC(C)OC(=O)CCC/C=C\C[C@@H]1[C@@H](/C=C/[C@@H](O)COc2cccc(C(F)(F)F)c2)[C@H](O)C[C@@H]1O [travoprost 0.004%] | inactive: -0.771 | – | – |
| CC(C)OC(=O)CCC/C=C\C[C@@H]1[C@@H](/C=C/[C@@H](O)COc2cccc(C(F)(F)F)c2)[C@H](O)C[C@@H]1O [travoprost 0.004%, Alcon] | – | inactive: -0.928 | inactive: -0.773 |
| O=C([C@H](O)CS(=O)(=O)c1ccc2cc(Cl)ccc2c1)N1CCC(N2CCCNC2=O)CC1 | inactive: 0.367 | inactive: -0.0686 | inactive: -1.08 |
| CN1CCN(c2ccc(N3C[C@H](CO)OC3=O)cc2F)C=N1 | inactive: 1.28 | inactive: -1.86 | inactive: -1.6 |
| CC(O)(CC(=O)O)CC(=O)O [meglutol] | inactive: 0.55 | inactive: 0.574 | inactive: 1.18 |

A second format for part of the listing above:
C=Cc1cc(C(=O)Nc2ccc(C(=N)N)cc2)c(-c2ccc(C(=O)NCC3CC3)nc2C(=O)O)cc1OC [Avoralstat]
  TEAD-luciferase reporter activity (compound concentration: 2 uM): inactive: 1.29
  TEAD-luciferase reporter activity (compound concentration: 200 nM): inactive: -1.16
  TEAD-luciferase reporter activity (compound concentration: 10 uM): inactive: 0.328
Cn1nnnc1C(/C=C/C(O)CC(O)CC(=O)O)=C(c1ccc(F)cc1)c1ccc(F)cc1 (stereo not given)
  TEAD-luciferase reporter activity (compound concentration: 2 uM): inactive: -1.4
  TEAD-luciferase reporter activity (compound concentration: 200 nM): inactive: -1.4
  TEAD-luciferase reporter activity (compound concentration: 10 uM): inactive: 0.131
CC(C)OC(=O)CCC/C=C\C[C@@H]1[C@@H](/C=C/[C@@H](O)COc2cccc(C(F)(F)F)c2)[C@H](O)C[C@@H]1O [travoprost 0.004%]
  TEAD-luciferase reporter activity (compound concentration: 2 uM): inactive: -0.771
CC(C)OC(=O)CCC/C=C\C[C@@H]1[C@@H](/C=C/[C@@H](O)COc2cccc(C(F)(F)F)c2)[C@H](O)C[C@@H]1O [travoprost 0.004%, Alcon]
  TEAD-luciferase reporter activity (compound concentration: 200 nM): inactive: -0.928
  TEAD-luciferase reporter activity (compound concentration: 10 uM): inactive: -0.773

More results.

| Compound | TEAD-luciferase reporter activity (compound concentration: 2 uM) | TEAD-luciferase reporter activity (compound concentration: 200 nM) | TEAD-luciferase reporter activity (compound concentration: 10 uM) |
| --- | --- | --- | --- |
| COc1ccc(Cc2cccc(-c3c(O)c4ccc(Cl)cc4[nH]c3=O)c2)cc1 | inactive: -0.803 | inactive: 0.672 | inactive: 1.97 |
| CC(=O)N[C@H]1[C@H](Oc2ccc3c(C)cc(=O)oc3c2)O[C@H](CO)[C@@H](O)[C@@H]1O | inactive: -1.09 | inactive: -0.78 | – |
| Cc1noc(C)c1NC(=O)c1ccc2c(c1)OCCCO2 | inactive: -0.496 | inactive: -1.31 | inactive: -1.27 |
| COc1cccc(-c2nccc3nc(O)c(-c4noc(C)n4)cc23)c1 [Radequinil] | inactive: -1.27 | inactive: -0.994 | inactive: 1.74 |
| CCOC(=O)C1CCN(c2nc(N(C)S(=O)(=O)c3ccc(F)cc3)ccc2[N+](=O)[O-])CC1 | inactive: 0.13 | inactive: -1.1 | inactive: 1.6 |
| CC(C)CC(=O)N[C@H](C(=O)N[C@H](C(=O)N[C@@H](CC(C)C)[C@@H](O)CC(=O)N[C@@H](C)C(=O)N[C@@H](CC(C)C)[C@@H](O)CC(=O)O)C(C)C)C(C)C | inactive: -0.168 | inactive: 1.56 | inactive: -0.711 |
| COc1cccc(C(=O)N(C)Cc2ccc(-c3ccccc3)cc2)c1 | – | inactive: 4.73 | inactive: 1.62 |
| CNS(=O)(=O)c1cc(OC)c(OC)c(C(=O)NC[C@H]2CCCN2C)c1 [sulverapride] | inactive: 0.407 | inactive: -0.44 | inactive: -0.274 |
| Cc1ccc(S(=O)(=O)NC(=O)Nc2ccc(Cl)cc2)cc1 | inactive: 1.87 | inactive: -0.687 | inactive: 2.27 |
| Cc1ccc(C(=O)N2CCC(N3Cc4ccccc4C3=O)CC2)cc1 | – | inactive: -0.766 | inactive: -0.396 |
| CC(=O)CCCCn1cnc2c1c(=O)n(C)c(=O)n2C | inactive: 1.03 | inactive: -0.883 | inactive: -0.524 |
| O=C(O)CSCC(=O)NC1CCSC1=O (stereo not given) [erdosteine] | inactive: -0.277 | inactive: 1.26 | inactive: -1.6 |
| Cc1cnc(NC(=O)C2=C(O)c3ccccc3S(=O)(=O)N2C)s1 [meloxicam] | inactive: 2.12 | – | – |
| Cc1cnc(NC(=O)C2=C(O)c3ccccc3S(=O)(=O)N2C)s1 | – | inactive: -0.565 | inactive: -1.74 |
| CC(C)(C)C(=O)OCOC(=O)[C@@H]1N2C(=O)C[C@H]2S(=O)(=O)C1(C)C [pivsulbactam] | inactive: 0.251 | inactive: -0.0833 | inactive: 0.734 |
| CC(C)(O)c1cc(Nc2cc(Oc3cn(C4CC4)nc3C3CCOCC3)ccn2)ccn1 | inactive: -1.39 | inactive: 2.68 | inactive: -0.422 |
| O=C(NS(=O)(=O)c1ccccc1)c1ccc(Cl)cc1Cl | inactive: -1 | inactive: -0.267 | inactive: 1.08 |
| CCN(CC)CCNC(=O)c1ccc(NC(C)=O)cc1 [acecainide] | inactive: -0.349 | inactive: -0.828 | inactive: 0.648 |
| COc1ccc(S(=O)(=O)N2CCCN(S(=O)(=O)c3ccc(OC)c(OC)c3)CC2)cc1OC | inactive: -0.1 | inactive: -2.17 | inactive: -0.472 |

| Compound | TEAD-luciferase reporter activity (compound concentration: 2 uM) | TEAD-luciferase reporter activity (compound concentration: 200 nM) | TEAD-luciferase reporter activity (compound concentration: 10 uM) |
| --- | --- | --- | --- |
| CC(=O)Nc1ccc(OCC(O)CNC(C)C)cc1 (stereo not given) | inactive: 1.18 | inactive: -1.79 | inactive: -0.621 |
| COCOC(=O)[C@@H]1N2C(=O)[C@@H](N3C(=O)C(c4ccc(O)cc4)NC3(C)C)[C@H]2SC1(C)C (stereo not given in full) [sarmoxicillin] | inactive: 0.695 | inactive: 0.584 | inactive: 1.51 |
| COc1ccc(/C=C/C(=O)Nc2ccccc2C(=O)O)cc1OC | – | inactive: -1.07 | inactive: -2.65 |
| COc1ccc(/C=C/C(=O)Nc2ccccc2C(=O)O)cc1OC [tranilast] | inactive: -2.21 | – | – |
| c1ccc2c(Cc3c[nH]c4ccccc34)c[nH]c2c1 [Diindolylmethane] | inactive: 1.52 | inactive: -1.37 | inactive: 0.861 |
| O=C(CCCCCCCC(=O)NCCO)NCCO | – | inactive: -2.6 | inactive: 0.096 |
| O=C(CCCCCCCC(=O)NCCO)NCCO [Adelmidrol] | inactive: 0.533 | – | – |
| C[C@@H](Nc1cc(F)cc(F)c1)c1cc(C(=O)N(C)C)cc2c(=O)cc(N3CCOCC3)oc12 | inactive: 1.19 | inactive: 1.61 | active: 5.5 |
| Nc1nonc1/C(=N\c1ccc(F)c(Cl)c1)NO | inactive: -0.317 | inactive: 0.618 | inactive: -1.54 |
| CCN(CC)CCNc1ccc(CNC)c2sc3ccccc3c(=O)c12 | inactive: -1.79 | inactive: -0.942 | inactive: 4.47 |
| COc1cc2c(cc1OC)[C@@H](c1ccccc1)CN(C)CC2 | inactive: -0.0143 | inactive: -1.12 | inactive: 0.697 |
| CC(C)Oc1ccc2c(=O)c(-c3ccccc3)coc2c1 | – | inactive: 3.17 | inactive: 2.92 |
| CC(C)Oc1ccc2c(=O)c(-c3ccccc3)coc2c1 [ipriflavone] | inactive: 1.91 | – | – |
| N#Cc1ccc(OCCC2SC(=O)NC2=O)cc1 (stereo not given) | inactive: -0.31 | inactive: -0.822 | inactive: -0.786 |
| CC1(C(=O)O)CCC2(C)CCC3(C)C(=CC(=O)C4C5(C)CCC(O)C(C)(C)C5CCC43C)C2C1 (stereo not given) | inactive: -0.00366 | inactive: -1.26 | inactive: -0.442 |
| CC(C)CNCc1ccc(-c2ccccc2S(=O)(=O)N2CCCC2)cc1 | inactive: -0.211 | inactive: -1.53 | inactive: 0.837 |
| O=c1c2ccccc2nc2n1CCCCC2 | inactive: -0.512 | inactive: 1.65 | inactive: 0.954 |
| N=C(N)c1ccc(CCCCC(=O)N[C@@H](CC(=O)O)C(=O)N[C@@H](Cc2ccccc2)C(=O)O)cc1 | inactive: 0.831 | inactive: -1.32 | inactive: 2.08 |
| CO/N=C(/C(=O)N[C@@H]1C(=O)N2C(C(=O)OCOC(=O)C(C)(C)C)=C(/C=C/c3scnc3C)CS[C@H]12)c1csc(N)n1 [cefditoren pivoxil] | inactive: 0.306 | inactive: 0.52 | inactive: -0.679 |
